From paper PMC12077101
Results are given in words; binding and its absence hold for the method and conditions named. In cells and extracts the contact can be indirect. Binding calls can cover weak binding; strength is not graded here. Tags and fused reporters may be left off the sequences shown.

Target: Flag-tagged STING truncation containing the ligand-binding domain (human)
Test: co-IP; HEK293T cells co-transfected with both tagged plasmids for 24 h; Pierce IP Lysis Buffer; anti-Flag antibody or normal IgG overnight at 4°C, beads 6 h, six washes with cold PBS; immunoblot

B1: V5-AUP1 (ancient ubiquitous protein 1), full length, expressed in HEK293T cells (protein, UniProt Q9Y679 1-410)
chain: MELPSGPGPERLFDSHRLPGDCFLLLVLLLYAPVGFCLLVLRLFLGIHVFLVSCALPDSVLRRFVVRTMCAVLGLVARQEDSGLRDHSVRVLISNHVTPFDHNIVNLLTTCSTPLLNSPPSFVCWSRGFMEMNGRGELVESLKRFCASTRLPPTPLLLFPEEEATNGREGLLRFSSWPFSIQDVVQPLTLQVQRPLVSVTVSDASWVSELLWSLFVPFTVYQVRWLRPVHRQLGEANEEFALRVQQLVAKELGQTGTRLTPADKAEHMKRQRHPRLRPQSAQSSFPPSPGPSPDVQLATLAQRVKEVLPHVPLGVIQRDLAKTGCVDLTITNLLEGAVAFMPEDITKGTQSLPTASASKFPSSGPVTPQPTALTFAKSSWARQESLQERKQALYEYARRRFTERRAQEAD
binding: binds weakly
